Results are given in words; binding and its absence hold for the method and conditions named. Some entries that bind do so weakly or less than the wild type.
Biological target: cloned human DNA demethylase (dMTase1), His-tagged, transiently expressed from pcDNA3.1/His Xpress in human embryonal kidney cells (human) (UniProt Q9UBB5)
Assay: non-denaturing glycerol gradient sizing of transiently expressed, Ni2+-purified dMTase; activity fractionated at the 160-190 KDa range against about 40 KDa for the polypeptide (data not shown)

The chains behind the UniProt entries cited, without tags or fusion partners. Where a name states a change or a piece, a line headed by the entry shows the natural chain unless it says otherwise.
UniProt Q9UBB5: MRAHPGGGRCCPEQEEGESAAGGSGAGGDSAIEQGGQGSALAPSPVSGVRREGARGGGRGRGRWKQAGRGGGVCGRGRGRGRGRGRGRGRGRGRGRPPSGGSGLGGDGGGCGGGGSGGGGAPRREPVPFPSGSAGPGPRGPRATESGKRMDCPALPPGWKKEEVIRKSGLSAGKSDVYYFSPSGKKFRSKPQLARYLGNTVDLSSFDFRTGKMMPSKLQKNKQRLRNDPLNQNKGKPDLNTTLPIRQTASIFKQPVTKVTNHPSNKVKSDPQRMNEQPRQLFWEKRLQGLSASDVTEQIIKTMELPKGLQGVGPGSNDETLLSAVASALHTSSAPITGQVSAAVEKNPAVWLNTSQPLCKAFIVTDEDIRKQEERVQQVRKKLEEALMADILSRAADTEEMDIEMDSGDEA

binding: binds
Substance: cloned human DNA demethylase (dMTase1), His-tagged, transiently expressed from pcDNA3.1/His Xpress in human embryonal kidney cells (from UniProt Q9UBB5 150-411) (enzyme)
